From BindingDB's records for doi:10.1021/cb500908d (Technical University of Dortmund, 2015) come the findings set out here.

Each structure is given as a SMILES string. pIC50: −log10 of the molar value.

This test deals with T1, Serine/threonine-protein kinase TBK1 (Homo sapiens, UniProt Q9UHD2).
T1 sequence (Q9UHD2 whole entry): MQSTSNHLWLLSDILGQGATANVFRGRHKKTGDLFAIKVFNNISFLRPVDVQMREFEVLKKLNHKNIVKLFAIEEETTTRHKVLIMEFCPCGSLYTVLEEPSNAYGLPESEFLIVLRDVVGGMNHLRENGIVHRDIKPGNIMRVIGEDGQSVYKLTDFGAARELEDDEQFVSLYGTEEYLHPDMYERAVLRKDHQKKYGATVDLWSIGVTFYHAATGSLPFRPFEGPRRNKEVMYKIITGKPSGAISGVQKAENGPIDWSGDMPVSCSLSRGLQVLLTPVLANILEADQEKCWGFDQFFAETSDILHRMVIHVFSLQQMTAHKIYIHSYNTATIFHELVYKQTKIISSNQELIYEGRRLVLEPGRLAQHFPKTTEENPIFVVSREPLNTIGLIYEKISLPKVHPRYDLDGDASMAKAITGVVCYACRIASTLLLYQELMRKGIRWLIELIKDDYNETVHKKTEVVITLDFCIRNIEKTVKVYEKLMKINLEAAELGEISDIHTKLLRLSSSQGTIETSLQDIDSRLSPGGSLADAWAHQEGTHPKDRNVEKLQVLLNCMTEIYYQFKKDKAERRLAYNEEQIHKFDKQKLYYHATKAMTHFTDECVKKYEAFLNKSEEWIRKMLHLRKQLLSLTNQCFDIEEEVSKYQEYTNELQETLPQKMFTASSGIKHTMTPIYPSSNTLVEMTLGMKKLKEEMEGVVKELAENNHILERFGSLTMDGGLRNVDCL
The test can be described thus: IC50 determinations for TBK1 were performed with the KinEASE-STK assay from Cisbio according to the manufacturer's instructions. […] After completion of the reaction, an antiphosphoserine/-threonine antibody labeled with europium cryptate and streptavidin labeled with the fluorophore XL665 were added. FRET between europium cryptate and XL665 was measured to quantify the phosphorylation of thesubstrate peptide. ATP concentrations were adjusted to 30 μM while a substrate concentration of 1 μM was used. Kinase and inhibitor were preincubated for 30 min before the reaction was started by addition of ATP and substrate peptide.

As for `O=C1NC(=O)C(c2cccc([N+](=O)[O-])c2)=C1Nc1cc(Cl)c(O)c(Cl)c1` [GSK screening, 35], the pIC50 (in general, the IC50 on a negative log10 scale, so that one unit is a factor of ten) was 6.27.
